Laboratory results taken from patent US20210214458A1 (ONCOC4, published 2021).
Results are given in words; binding and its absence hold for the method and conditions named. Some results given as binding are weak or reduced against the parent protein; the word gives no strength.

Columns and labels:
[1] = target: anti-CD24 monoclonal antibody 3B6; assay: peptide inhibition assay (FIG. 9)
[2] = target: anti-CD24 monoclonal antibody 3B6; assay: peptide inhibition ELISA: peptide pre-incubated with 3B6, plate coated with deglycosylated CD24Fc

binding [1]: binds
binding [2]: binds
B1: CD24 peptide 4 (peptide)
peptide: SNSGLAPNPT
